Screening data, single-dose tests

Measurements from “University of Dundee, Small-Polar-MMV Screening Library” (2021), ChEMBL document CHEMBL3988442.

A: 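Phenotypic screen: M. tuberculosis growth, glucose 7H9 medium, 3 days; the read-out is not stated. Tested at 50 µM. Higher reads as more growth inhibition (inferred: compounds with an IC50 in retests scored well above the rest). Size under these conditions: about 69,000 compounds, about 760 of them at 50% or above in at least one test.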
B: 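Growth of Mycobacterium tuberculosis over 4 days (cholesterol / DPPC medium with tyloxapol); the read-out is not stated. Tested at 50 µM. Direction is inferred from retests: higher values go with more growth inhibition. About 69,000 compounds were tested under these conditions; 0.54% (about 370) showed 50% or more at least once.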

The filed quantity is “Percent Effect” (%). The record does not define 0% and 100%; most values in the screen are far below 50% and negative numbers occur (in some assays of this library far below -100). This is an unselected part of the compounds tested. Two or more numbers in one place are separate tests of the same structure; such repeats can differ widely.

{"compound": "[H][C@]12C[C@@H](Cn3cccn3)N(C)[C@@]1([H])CCN(C(=O)Cc1cccs1)C2", "A": -33.49, "B": -24.31}
{"compound": "O=C(O)C(F)(F)F.O=C(O)C(F)(F)F.O=C(O)C(F)(F)F.c1ccc(CN2CCCC3(CCN(Cc4cccs4)C3)C2)nc1", "stereo": "stereo not drawn", "A": -13.08, "B": "-3.133 & 4.967"}
{"compound": "O=C(Cc1ccccc1)N1CCC(c2nnc(-c3ccccn3)o2)CC1", "A": -21.12, "B": "-3.394 & -18.27"}
{"compound": "CC(c1cccc(-c2nccn2CCc2cn[nH]c2)c1)N(C)C", "stereo": "stereo not drawn", "A": -29.66, "B": -28.09}
{"compound": "COc1ccc(N(C(=O)c2ccccn2)C(C)C)cc1F", "A": -18.09, "B": -2.749}
{"compound": "Cc1noc(C)c1CC(=O)N1CCCC(Cc2ccccn2)C1", "stereo": "stereo not drawn", "A": -8.934, "B": "-6.106 & 2.047"}
{"compound": "CC(C)CC(=O)N1CC(=O)c2sc(NC3CCCCC3)nc2C1", "A": 17.05, "B": -2.043}
{"compound": "Nc1cc2c(nn1)CCN(C(=O)c1cccnc1Oc1ccccc1)C2", "A": -16.76, "B": -15.39}
{"compound": "Cc1ccc(-c2nc(CNc3ccc(C(N)=O)c(C)c3)cs2)o1", "A": 13.36, "B": 7.196}
{"compound": "CC(Cc1cccs1)NC(=O)CCn1cccn1", "stereo": "stereo not drawn", "A": 12.73, "B": 12.1}
{"compound": "O=C(CN1CCCC1COc1ccccc1)NCc1ccccn1", "stereo": "stereo not drawn", "A": 31.94, "B": 11.5}
{"compound": "O=C(O)C(F)(F)F.O=C(O)C(F)(F)F.O=C(O)C(F)(F)F.[H][C@]12CCN(Cc3ccoc3)C[C@@]1([H])OCCN(Cc1cccnc1)C2", "A": 26.73, "B": -10.07}
{"compound": "Cc1cnn(CC2CCCCN2Cc2nc(N)c3ccccc3n2)c1", "stereo": "stereo not drawn", "A": 44.95, "B": 25.8}
{"compound": "CN1CCN(C(=O)C2CC=CC2)c2ccccc21", "A": "2.513 & 12.23", "B": -9.124}
{"compound": "CC(=O)N(Cc1noc(C2CC2)n1)C1CCN(Cc2cccnc2)C1", "stereo": "stereo not drawn", "A": -2.543, "B": -23.17}
{"compound": "Cc1nccn1C1CCCN(C(=O)c2cccc(S(C)(=O)=O)c2)C1", "stereo": "stereo not drawn", "A": -20.91, "B": -22.65}
{"compound": "CN1CCC(N(C)C[C@H]2CC[C@@H](Cc3ccc4c(cnn4C)c3)O2)CC1", "A": "3.699 & 4.439", "B": -6.619}
{"compound": "N#Cc1cccc(C(=O)N2CCN(c3ncccn3)CC2)c1", "A": -4.531, "B": -40.19}
{"compound": "Cc1cc(=O)n2ncnc2n1CC(O)c1ccccc1F", "stereo": "stereo not drawn", "A": 0.7481, "B": -2.26}
{"compound": "CN1CC(C(=O)NCCOc2ccc3c(c2)OCO3)CC1=O", "stereo": "stereo not drawn", "A": -8.979, "B": -1.873}
{"compound": "COCCn1/c(=N\\C(=O)CN(C)S(C)(=O)=O)sc2cccc(F)c21", "A": -76.85, "B": -14.29}
{"compound": "CC(C)CC(=O)Nc1cccc(CNCc2cccs2)c1", "A": -21.34, "B": -11.61}
{"compound": "O=C(O)C(F)(F)F.O=C(O)C(F)(F)F.[H][C@@]12CCC(=O)N(CCN(C)C)[C@]1([H])CCN2Cc1cccc(C#N)c1", "A": -28.14, "B": "-0.8968 & 5.942"}
{"compound": "[H][C@]12C[C@H](CNC(=O)C3CCC3)O[C@@]1([H])CN(C(=O)c1ccno1)C2", "A": "14.96 & -5.126", "B": 13.66}
{"compound": "CCn1c(C)cc(C(=O)NCc2cccc(S(=O)(=O)NC)c2)c1C", "A": "-14.38 & -6.518", "B": "-4.764 & -21.19"}
{"compound": "COc1ccc(CN(Cc2cn(C)nc2C)CC2CCCO2)c(OC)c1", "stereo": "stereo not drawn", "A": -6.857, "B": -0.62}
{"compound": "CCn1cc(Cn2cc(-c3cccc(C(C)N(C)C)c3)nn2)cn1", "stereo": "stereo not drawn", "A": 0.7185, "B": "7.494 & 8.169"}
{"compound": "O=C1NCC(C(=O)Nc2ncc(Cc3ccc(F)cc3)s2)N1", "stereo": "stereo not drawn", "A": -18.62, "B": -17.55}
{"compound": "CCCNC(=O)CNC(=O)CC1CCCc2cc(OC)ccc21", "stereo": "stereo not drawn", "A": "-2.35 & -10.48", "B": -19.65}
{"compound": "O=C(COc1cccc2c1CCC2=O)NCC(F)(F)F", "A": -0.2304, "B": "-7.605 & -5.481"}
{"compound": "CN1CC2(CCN(S(=O)(=O)C3CC3)CC2)c2ccccc21.O=C(O)C(F)(F)F", "A": "1.632 & -10.92", "B": 10.74}
{"compound": "Cc1cc(C(=O)N2CCNC(=O)C2)c(C)n1Cc1ccccn1", "A": "-5.388 & 3.293", "B": -5.17}
{"compound": "CCCN(c1ccccc1C(=O)O)S(=O)(=O)c1ccc2ccccc2c1", "A": -7.29, "B": 1.087}
{"compound": "CC(C)=CCC1(C(=O)O)CCCN(c2cc(N)ncn2)C1", "stereo": "stereo not drawn", "A": 2.81, "B": -7.105}
{"compound": "COc1cc(CN(C)C(=O)NCc2ccccn2)ccc1SC", "A": 4.417, "B": -10.19}
{"compound": "CCOC(=O)c1n[nH]cc1-c1cncn1CCn1nc(C)c(C)c1C.Cl", "A": -5.696, "B": 2.199}
{"compound": "[H][C@@]12CCN(C(=O)COC)C[C@@]1([H])O[C@@H](C)C2", "A": 24.09, "B": -3.208}

Some entries from above, unchanged:

{"compound": "CCCNC(=O)CNC(=O)CC1CCCc2cc(OC)ccc21", "stereo": "stereo not drawn", "A": "-2.35 & -10.48", "B": -19.65}
{"compound": "Cc1cc(C(=O)N2CCNC(=O)C2)c(C)n1Cc1ccccn1", "A": "-5.388 & 3.293", "B": -5.17}
{"compound": "Cc1noc(C)c1CC(=O)N1CCCC(Cc2ccccn2)C1", "stereo": "stereo not drawn", "A": -8.934, "B": "-6.106 & 2.047"}